Laboratory results taken from patent US20120294796A1 (MacroGenics, published 2012).
No constants are given. Whether binding was seen depends on the method and setting. Some entries that bind do so weakly or less than the wild type.

Tests used:
[1] = target: T1, human B7-H3 (form not stated) (human) (UniProt Q5ZPR3); test: BIACORE analysis (grade)
T1 sequence (looked up): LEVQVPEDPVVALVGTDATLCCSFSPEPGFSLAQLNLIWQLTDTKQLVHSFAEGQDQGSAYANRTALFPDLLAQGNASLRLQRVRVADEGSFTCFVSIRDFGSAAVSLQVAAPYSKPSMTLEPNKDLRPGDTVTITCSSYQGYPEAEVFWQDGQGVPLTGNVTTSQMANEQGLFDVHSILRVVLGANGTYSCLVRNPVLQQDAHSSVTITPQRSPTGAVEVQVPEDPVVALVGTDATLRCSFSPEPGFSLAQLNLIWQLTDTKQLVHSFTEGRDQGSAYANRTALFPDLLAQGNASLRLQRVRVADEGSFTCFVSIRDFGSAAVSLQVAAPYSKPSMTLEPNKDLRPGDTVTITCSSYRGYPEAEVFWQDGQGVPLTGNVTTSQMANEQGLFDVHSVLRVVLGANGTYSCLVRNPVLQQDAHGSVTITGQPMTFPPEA

[2] = target: T1, human B7-H3 (form not stated) (human); test: BIACORE, sequential binding (FIG. 8)
[3] = target: T1, human B7-H3 (form not stated) (human); test: BIACORE / IHC summary
[4] = target: T1, human B7-H3 (form not stated) (human); test: Binding BIACORE (grade)
[5] = target: T1, human B7-H3 (form not stated) (human); test: summary of activities (Table 6)
[6] = target: T1, human B7-H3 (form not stated) (human); test: BIACORE (grade, Table 21)
[7] = target: T1, human B7-H3 (form not stated) (human); test: BIACORE, sequential binding after BRCA84D (FIG. 8)
[8] = target: T1, human B7-H3 (form not stated) (human); test: relative binding to human B7-H3 (FIG. 12)
[9] = target: T1, human B7-H3 (form not stated) (human); test: relative binding to human B7-H3 (FIG. 13)

Measured: binding

B1: BRCA84D (antibody, IgG1, V domains shown)
VH: DVQLVESGGGLVQPGGSRKLSCAASGFTFSSFGMHWVRQAPEKGLEWVAYISSDSSAIYYADTVKGRFTISRDNPKNTLFLQMTSLRSEDTAMYYCGRGRENIYYGSRLDYWGQGTTLTVSS
VL: DIAMTQSQKFMSTSVGDRVSVTCKASQNVDTNVAWYQQKPGQSPKALIYSASYRYSGVPDRFTGSGSGTDFTLTINNVQSEDLAEYFCQQYNNYPFTFGSGTKLEIK
binds: [1] | [2] | [3] | [4] | [5] | [6]

B2: BRCA69D (antibody, IgG1, V domains shown)
VH: QVQLQQSGAELARPGASVKLSCKASGYTFTSYWMQWVKQRPGQGLEWIGTIYPGDGDTRYTQKFKGKATLTADKSSSTAYMQLSSLASEDSAVYYCARRGIPRLWYFDVWGAGTTVTVSS
VL: DIQMTQTTSSLSASLGDRVTISCRASQDISNYLNWYQQKPDGTVKLLIYYTSRLHSGVPSRFSGSGSGTDYSLTIDNLEQEDIATYFCQQGNTLPPTFGGGTKLEIK
notes: also called BRCA69A (probable misprint)
binds: [7] | [1] | [3] | [4] | [5] | [6]

B3: PRCA157 (antibody, IgG1, V domains shown)
VH: EVQQVESGGDLVKPGGSLKLSCAASGFTFSSYGMSWVRQTPDKRLEWVATINSGGSNTYYPDSLKGRFTISRDNAKNTLYLQMRSLKSEDTAMYYCARHDGGAMDYWGQGTSVTVSS
VL: DIQMTQSPASLSVSVGETVTITCRASESIYSYLAWYQQKQGKSPQLLVYNTKTLPEGVPSRFSGSGSGTQFSLKINSLQPEDFGRYYCQHHYGTPPWTFGGGTNLEIK
binds: [7] | [3] | [6]

B4: antibody containing hBRCA84D-5VL and chimeric BRCA84D heavy chain (antibody, V domains shown)
VH: DVQLVESGGGLVQPGGSRKLSCAASGFTFSSFGMHWVRQAPEKGLEWVAYISSDSSAIYYADTVKGRFTISRDNPKNTLFLQMTSLRSEDTAMYYCGRGRENIYYGSRLDYWGQGTTLTVSS
VL: DIQLTQSPSFLSASVGDRVTITCKASQNVDTNVAWYQQKPGQAPKALIYSASYRYSGVPSRFSGSGSGTDFTLTISSLQPEDFATYYCQQYNNYPFTFGQGTKLEIK
binds: [8]

B5: antibody containing hBRCA84D-5VL and hBRCA84D-2VH (antibody, V domains shown)
VH: EVQLVESGGGLVQPGGSLRLSCAASGFTFSSFGMHWVRQAPGKGLEWVAYISSDSSAIYYADTVKGRFTISRDNAKNSLYLQMNSLRDEDTAVYYCGRGRENIYYGSRLDYWGQGTTVTVSS
VL: DIQLTQSPSFLSASVGDRVTITCKASQNVDTNVAWYQQKPGQAPKALIYSASYRYSGVPSRFSGSGSGTDFTLTISSLQPEDFATYYCQQYNNYPFTFGQGTKLEIK
binds: [9]
